Source: paper PMC10721647
Results are given in words; binding and its absence hold for the method and conditions named. Binding seen in cells or lysates may run through a third protein. A yes stands for co-enrichment or nearness to the bait. Other partners may have been found.

Molecular target: FLAG-BPLF1, viral ubiquitin deconjugase (vDUB) encoded in the N-terminal domain (aa 1-235) of the Epstein-Barr virus large tegument protein BPLF1 (Epstein-Barr virus) (UniProt P03186)
Assay: affinity purification with mass spectrometry; anti-FLAG immunoprecipitates of cells transfected with FLAG-BPLF1 or FLAG-BPLF1 C61A against FLAG-empty vector, biological duplicates; hits need at least four unique spectral counts; mass spectrometry data previously reported (ref. 43) and reanalysed here

Molecule | binding
eIF2α, translation pre-initiation complex subunit (from UniProt P05198 1-315) | binds
SEC63 subunit of the ER translocon (from UniProt Q9UGP8 1-760) | binds
AAA+ ATPase VCP/p97 (from UniProt P55072 1-806) | binds
β subunit of the SRP receptor (SRPRB) (protein, UniProt Q9Y5M8 1-271) MASADSRRVADGGGAGGTFQPYLDTLRQELQQTDPTLLSVVVAVLAVLLTLVFWKLIRSRRSSQRAVLLVGLCDSGKTLLFVRLLTGLYRDTQTSITDSCAVYRVNNNRGNSLTLIDLPGHESLRLQFLERFKSSARAIVFVVDSAAFQREVKDVAEFLYQVLIDSMGLKNTPSFLIACNKQDIAMAKSAKLIQQQLEKELNTLRVTRSAAPSTLDSSSTAPAQLGKKGKEFEFSQLPLKVEFLECSAKGGRGDVGSADIQDLEKWLAKIA | binds
SRP68 subunit of the Signal Recognition Particle (SRP) (protein, UniProt Q9UHB9 1-627) MAAEKQVPGGGGGGGSGGGGGSGGGGSGGGRGAGGEENKENERPSAGSKANKEFGDSLSLEILQIIKESQQQHGLRHGDFQRYRGYCSRRQRRLRKTLNFKMGNRHKFTGKKVTEELLTDNRYLLLVLMDAERAWSYAMQLKQEANTEPRKRFHLLSRLRKAVKHAEELERLCESNRVDAKTKLEAQAYTAYLSGMLRFEHQEWKAAIEAFNKCKTIYEKLASAFTEEQAVLYNQRVEEISPNIRYCAYNIGDQSAINELMQMRLRSGGTEGLLAEKLEALITQTRAKQAATMSEVEWRGRTVPVKIDKVRIFLLGLADNEAAIVQAESEETKERLFESMLSECRDAIQVVREELKPDQKQRDYILEGEPGKVSNLQYLHSYLTYIKLSTAIKRNENMAKGLQRALLQQQPEDDSKRSPRPQDLIRLYDIILQNLVELLQLPGLEEDKAFQKEIGLKTLVFKAYRCFFIAQSYVLVKKWSEALVLYDRVLKYANEVNSDAGAFKNSLKDLPDVQELITQVRSEKCSLQAAAILDANDAHQTETSSSQVKDNKPLVERFETFCLDPSLVTKQANLVHFPPGFQPIPCKPLFFDLALNHVAFPPLEDKLEQKTKSGLTGYIKGIFGFRS | binds
Ribophorin (RPN)-1 subunit of the translocon-associated N-oligosaccharyltransferase (OST) complex (protein, UniProt P04843 24-607) ASSEAPPLINEDVKRTVDLSSHLAKVTAEVVLAHLGGGSTSRATSFLLALEPELEARLAHLGVQVKGEDEEENNLEVRETKIKGKSGRFFTVKLPVALDPGAKISVIVETVYTHVLHPYPTQITQSEKQFVVFEGNHYFYSPYPTKTQTMRVKLASRNVESYTKLGNPTRSEDLLDYGPFRDVPAYSQDTFKVHYENNSPFLTITSMTRVIEVSHWGNIAVEENVDLKHTGAVLKGPFSRYDYQRQPDSGISSIRSFKTILPAAAQDVYYRDEIGNVSTSHLLILDDSVEMEIRPRFPLFGGWKTHYIVGYNLPSYEYLYNLGDQYALKMRFVDHVFDEQVIDSLTVKIILPEGAKNIEIDSPYEISRAPDELHYTYLDTFGRPVIVAYKKNLVEQHIQDIVVHYTFNKVLMLQEPLLVVAAFYILFFTVIIYVRLDFSITKDPAAEARMKVACITEQVLTLVNKRIGLYRHFDETVNRYKQSRDISTLNSGKKSLETEHKALTSEIALLQSRLKTEGSDLCDRVSEMQKLDAQVKELVLKSAVEAERLVAGKLKKDTYIENEKLISGKRQELVTKIDHILDAL | binds
ZNF598, RQC ubiquitin ligase (protein, UniProt Q86UK7 1-904) MAAAGGAEGRRAALEAAAAAAPERGGGSCVLCCGDLEATALGRCDHPVCYRCSTKMRVLCEQRYCAVCREELRQVVFGKKLPAFATIPIHQLQHEKKYDIYFADGKVYALYRQLLQHECPRCPELPPFSLFGDLEQHMRRQHELFCCRLCLQHLQIFTYERKWYSRKDLARHRMQGDPDDTSHRGHPLCKFCDERYLDNDELLKHLRRDHYFCHFCDSDGAQDYYSDYAYLREHFREKHFLCEEGRCSTEQFTHAFRTEIDLKAHRTACHSRSRAEARQNRHIDLQFSYAPRHSRRNEGVVGGEDYEEVDRYSRQGRVARAGTRGAQQSRRGSWRYKREEEDREVAAAVRASVAAQQQEEARRSEDQEEGGRPKKEEAAARGPEDPRGPRRSPRTQGEGPGPKETSTNGPVSQEAFSVTGPAAPGCVGVPGALPPPSPKLKDEDFPSLSASTSSSCSTAATPGPVGLALPYAIPARGRSAFQEEDFPALVSSVPKPGTAPTSLVSAWNSSSSSKKVAQPPLSAQATGSGQPTRKAGKGSRGGRKGGPPFTQEEEEDGGPALQELLSTRPTGSVSSTLGLASIQPSKVGKKKKVGSEKPGTTLPQPPPATCPPGALQAPEAPASRAEGPVAVVVNGHTEGPAPARSAPKEPPGLPRPLGSFPCPTPQEDFPALGGPCPPRMPPPPGFSAVVLLKGTPPPPPPGLVPPISKPPPGFSGLLPSPHPACVPSPATTTTTKAPRLLPAPRAYLVPENFRERNLQLIQSIRDFLQSDEARFSEFKSHSGEFRQGLISAAQYYKSCRDLLGENFQKVFNELLVLLPDTAKQQELLSAHTDFCNREKPLSTKSKKNKKSAWQATTQQAGLDCRVCPTCQQVLAHGDASSHQALHAARDDDFPSLQAIARIIT | binds
